Data taken from PubChem BioAssay AID2685 (National Center for Advancing Translational Sciences (NCATS), 2010).
This is one part of the list. Shown are side measurements of this screen, not its main read-out; they come without a call. Compounds called inactive in the main read-out are mostly missing here. Words in brackets tell the shape of the fitted curve; partial curves, single points and poor fits give uncertain potencies.

Experiment: qHTS Assay for Lipid Storage Modulators in Drosophila S3 Cells;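 for cell number change: cells counted by Cell Tracker Red CMTPX staining in the red channel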
Settings: BODIPY lipid droplet fluorescence, 18-24 h; for cell number change: measured here: cell count max response, cells fed with added oleic acid
How it was run: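 Drosophila S3 cells loaded with oleic acid (400 uM, as added) and compounds at several concentrations; lipid droplets imaged by 488-nm laser-scanning cytometry, 500–530 nm intensity and object ratio to cell channel. Percent activity normalized to 20 uM Triacsin C.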

[1] = measured here: lipid fluorescence (Fed channel) AC50, cells fed with added oleic acid
[2] = measured here: cell number channel AC50, cells fed with added oleic acid

Structure (SMILES)	cell number change	AC50 [1]	AC50 [2]
C/C(=N\Nc1ccc(C(F)(F)F)cn1)c1ccncc1	-15.1%		
CS(=O)(=O)N(CC(=O)NCC1CCCO1)c1cc(Cl)ccc1Cl (stereo unspecified)	-3.61%	2.59 µM [falling, full curve]	
CC(=O)NC(NC(=S)Nc1ccc(N=Nc2ccccc2)cc1)C(Cl)(Cl)Cl (stereo unspecified)	-2.64%	0.58 µM [falling, single point]	
CC(=O)c1cccc(NC(=S)N2CCC(Cc3ccccc3)CC2)c1	0.0795%		
COc1ccc(NC(=O)Nc2ccc(F)cc2F)c(C)c1		2.06 µM [rising, partial curve]	1.64 µM [rising, partial curve]
CC(CCc1ccccc1)NC(=O)CCCCCNc1nc(=S)[nH]c2ccccc12 (stereo unspecified)	16.5%	0.164 µM [rising, full curve, poor fit]	0.146 µM [rising, full curve, poor fit]
COc1cccc(-n2nnc3c(=O)n(C/C=C/c4ccccc4)cnc32)c1		2.59 µM [rising, single point]	
CC(=O)Nc1ccc(Nc2c3ccccc3nc3ccccc23)cc1	-27%		3.26 µM [falling, single point]
CCCCn1c(SCC(=O)Nc2oc(C)c3c(C)n[nH]c(=O)c23)nc2cc(S(N)(=O)=O)ccc21	51.7%	5.8 µM [rising, partial curve]	3.66 µM [rising, partial curve]
Cn1c(=O)c2c(nc(-n3ccnc3)n2C)n(C)c1=O			6.51 µM [rising, single point]
CCOC(=O)c1ccc(S(=O)(=O)N2CCN(C(=O)c3cc4ccccc4o3)CC2)cc1	-8.23%		
Cc1ccn(CCNC(=O)C2CCC(=O)N(CCc3ccc(Cl)cc3)C2)n1 (stereo unspecified)	11.1%		
Cc1nc(SCC(=O)Nc2ccc(OCc3ccccc3)cc2)n[nH]1	-9.95%	0.082 µM [rising, full curve, poor fit]	
O=C(OCN1C(=O)c2ccccc2C1=O)c1cccc(OC(F)F)c1	19.7%	0.326 µM [rising, single point]	
CCOC(=O)c1cn[nH]c1C(F)(F)F	-9.4%	0.731 µM [falling, full curve]	
COc1cc2ncnc(NCc3cccs3)c2cc1OC	-5.51%	20.6 µM [falling, single point]	
CC(=O)NCCC1CCN(C(=O)c2cc(COc3ccc(C)nc3)on2)CC1	-9.92%	29.1 µM [falling, single point]	
C/C(=N\Nc1nc2ccccc2[nH]1)c1ccc(Cl)s1	-6.51%		

A different layout for part of the listing above.
Structure (SMILES) | cell number change | AC50 [1] | AC50 [2]
COc1ccc(NC(=O)Nc2ccc(F)cc2F)c(C)c1 |  | 2.06 µM [rising, partial curve] | 1.64 µM [rising, partial curve]
CC(CCc1ccccc1)NC(=O)CCCCCNc1nc(=S)[nH]c2ccccc12 (stereo unspecified) | 16.5% | 0.164 µM [rising, full curve, poor fit] | 0.146 µM [rising, full curve, poor fit]
